# Laboratory results as given in paper PMC12040169 (PLOS Biology, 2025).
# Some of the results follow.
# Test system: T1, CTL2-GFP (C. trachomatis L2/434/Bu, GFP-expressing)
# T1 construct: L2/434/Bu, GFP-expressing
# Set-up: species or system HeLa; Intracellular C. trachomatis growth in HeLa cells, bulk GFP fluorescence relative to DMSO
# Details: bulk GFP, single well; 28.5 h, 10 µM; inhibitor
row,SMILES,% of control remaining
1,CC(C)CCNC(=O)CC(=O)Nc1ccc(C(=O)O)cc1 [CBK286721],107.063%
2,Cc1cnc(CNC(=O)N2CCc3ccccc3C2)cn1 [CBK155166],161.774%
3,CC(=O)N1CCCC(c2cc3cccnc3n2CCN2CCCC2)C1 (stereo not shown) [CBK284591],110.894%
4,Cn1c(Cc2ccccc2)nnc1Sc1ccc(C(=O)O)cc1[N+](=O)[O-] [CBK265038],120.679%
5,CC(C)[C@@H](N)C(=O)N1CC[C@@H]2NC(=O)[C@@H](Cc3ccccc3)NC(=O)C3(C/C=C/C[C@H]2C1)CCOCC3 [CBK292201],103.95%
6,O=C(NCCn1nc(-c2cccs2)ccc1=O)c1cccs1 [CBK283836],123.02%
7,COc1ccc(CCC(=O)Nc2ncn(Cc3cccc(C)c3)n2)cc1 [CBK288227],118.682%
8,CCCNCC(=O)N1CCN(C(=O)c2ccc(C)cc2)CC1 [CBK025546],112.548%
9,CN(C)CCNCCCSc1ccc(Cl)cc1 [CBK267794C],94.0305%
10,COc1ccc(Oc2coc3c(CN(C)C)c(O)ccc3c2=O)cc1 [CBK263653],137.696%
11,N#Cc1ccc(-c2cc(NCCc3ccncc3)ncn2)cc1 [CBK037787],230.169%
12,CCN1CCN(C(=O)CN(CC)S(=O)(=O)c2ccc3ccccc3c2)CC1 [CBK267913],111.347%
13,OCc1ncccc1OCCOC1CCCCO1 (stereo not shown) [CBK045702],94.949%
14,CC(NC(=O)C1C2C=CC(C2)C1C(=O)O)c1ccccc1 (stereo not shown) [CBK265384],110.083%
15,COc1cccc(NC(=O)N2CC[C@H]3CC(=O)N(c4ccccc4)CC[C@H]3C2)c1 [CBK288787],90.9498%
16,COC(=O)N/N=C(/C)c1ccc(C)cc1 [CBK016149],137.623%
17,COc1ccc(-n2ccn(C(=O)CCC3CCCC3)c2=O)cc1 [CBK106595],179.309%
18,O=C(O)c1cccc(-c2cc(N3CCN(Cc4cccnc4)CC3)n3nccc3n2)c1 [CBK037080],197.535%
19,O=C1c2ccccc2C(c2ccc(NC(=O)c3cccc4ccccc34)cc2)(c2ccc(NC(=O)c3cccc4ccccc34)cc2)c2ccccc21 [CBK261162],111.794%
20,Cc1c(OCc2ccc(C(=O)O)cc2)ccc2c(-c3ccccc3)cc(=O)oc12 [CBK296080],71.3891%
21,NCC(=O)Nc1ccc(Cl)c(Cl)c1 [CBK046317],104.129%
22,CC(NC(=O)N(CCC#N)C1CCCCC1)c1ccccc1 (stereo not shown) [CBK156382],105.014%
23,O=C(Nc1nccs1)c1nccnc1-c1ccc(COc2ccccc2)cc1 [CBK050839],219.2%
24,COCC(=O)Nc1ccc2c(c1)NC(=O)C(C)(C)CO2 [CBK287658],136.935%
25,C1C/C(=N/N=C2\CCCc3nonc32)c2nonc2C1 [CBK006721],119.161%
26,CC(C)(C)NS(=O)(=O)c1ccc(NC(=O)COc2ccc3ccccc3c2Br)cc1 [CBK267015],175.335%
27,NC(=O)C1CCN(Cc2nc(-c3cccc(C(F)(F)F)c3)no2)CC1 [CBK304276],97.3751%

# Some of these compounds in order of count of non-hydrogen atoms, ascending:
row,SMILES,% of control remaining
25,C1C/C(=N/N=C2\CCCc3nonc32)c2nonc2C1 [CBK006721],119.161%
8,CCCNCC(=O)N1CCN(C(=O)c2ccc(C)cc2)CC1 [CBK025546],112.548%
23,O=C(Nc1nccs1)c1nccnc1-c1ccc(COc2ccccc2)cc1 [CBK050839],219.2%

# Next part:

row,SMILES,% of control remaining
1,CN1CCN(C(=O)C2CCCCC2C(=O)O)CC1 (stereo not shown) [CBK287092],110.844%
2,COc1ccc(C(=O)Nc2cccc3nsnc23)cc1OC [CBK260973],96.5285%
3,COc1ccccc1CN[C@@H]1CCC[C@H]1Cc1cc(C)no1 [CBK283005],101.131%
4,COc1ccc(C2(O)CCN(CC(O)c3ccc4c(c3)CCC4)CC2)cc1 (stereo not shown) [CBK286334],119.281%
5,O=C(N[C@H]1CO[C@H]2[C@@H]1OC[C@@H]2Nc1nccc(-c2cccs2)n1)c1cccs1 [CBK289518],61.3696%
6,NCCNc1cccc2c1ccn2S(=O)(=O)c1ccccc1 [CBK028470C],83.4162%
7,C(=C\CSc1nc2ccccc2[nH]1)/CSc1nc2ccccc2[nH]1 [CBK263090],95.3783%
8,CSCCCNC(=O)c1ccc(-c2ccoc2)nc1 [CBK156262],105.748%
9,O=C(O)CC(NCc1ccccc1)C(=O)Nc1ccccc1Br (stereo not shown) [CBK267118],123.824%
10,CCOC(=O)C1CCCN(Cc2c[nH]nc2-c2ccc(OC)cc2F)C1 (stereo not shown) [CBK307304],129.384%
11,O=C(NC1CCCc2c1cnn2-c1ccc(F)cc1)C1CC1 (stereo not shown) [CBK283928],108.681%
12,COCCNc1nc(-c2ccc(N3CCOCC3)cc2)ccc1C(=O)N1CCN(C)CC1 [CBK105943],109.957%
13,CC1=NNC(=O)C1Cc1c(Cl)cccc1Cl (stereo not shown) [CBK067754],100.728%
14,CCSc1nc(=O)c2c(n1C)NC(=O)CC2c1ccc(OC)cc1 (stereo not shown) [CBK307542],122.644%
15,Cc1cc2ncc3c(n2n1)CC1CCC3N1C(=O)CCn1cccc1 (stereo not shown) [CBK283157],101.667%
16,COc1ccc(C(=O)N2Cc3ccccc3C2)c(OC)n1 [CBK200317],116.863%
17,Cc1cc(-c2cn3cc(C(=O)NCCCCO)nc3c(=O)n2C)c(C)o1 [CBK307037],95.0056%
18,CCN1CCN(Cc2c(O)ccc3c(=O)c(Oc4ccccc4Cl)c(C(F)(F)F)oc23)CC1 [CBK266627],138.25%
19,O=C(NCC(c1ccccc1)c1ccccc1)N1CCN(Cc2ccccc2)CC1 [CBK155651],143.125%
20,N#CCCN(C(=O)Nc1ccccc1Cl)C1CCCCC1 [CBK156366],119.922%
21,CS(=O)(=O)c1ccc(-c2nccnc2NCc2cccnc2)cc1 [CBK036977],103.606%
22,COc1ccc(Br)cc1S(=O)(=O)Nc1c(C(=O)Nc2ccc(F)cc2)[nH]c2ccccc12 [CBK050095],112.202%
23,COc1ccc2cc(C(=O)NCCn3ccnc3C)n(C)c2c1 [CBK282544],127.171%
24,COc1ccc(OC)c(C2=NO[C@@](CC(=O)O)(C(=O)NC3CCCCC3)C2)c1 [CBK286672],102.209%
25,CC(C(=O)Nc1cccc(N2CCNCC2)c1)c1ccccc1 (stereo not shown) [CBK004770T],113.157%
26,O=C(O)c1cc(NC(=O)c2ccc3c(c2)C(=O)N(Cc2cccnc2)C3=O)cc(C(=O)O)c1 [CBK266761],94.5562%
27,O=C(O)C1CC=CCC1C(=O)NCc1ccncc1 (stereo not shown) [CBK265481],131.088%

row,SMILES,% of control remaining
1,Cc1cc(C(F)(F)F)nc2c(OCCOc3nccnc3N3CCNCC3)cnn12 [CBK024195C],118.594%
2,c1ccc(-c2nc3sc4c(ncn5cnnc45)c3c3c2CCC3)cc1 [CBK269566],140.566%
3,O=C(c1ccc(-c2ccc(F)cc2)o1)N1C[C@H]2CC[C@](O)(c3ccc(F)cc3)[C@H]2C1 [CBK286415],17.3049%
4,COc1cc(-c2nccnc2NCc2ccc(OC(F)(F)F)cc2)cc(OC)c1OC [CBK038063],98.5068%
5,CC(C)S(=O)(=O)N1C2CCC(C2)[C@@H]1COc1ccc(F)cc1 (stereo partly shown) [CBK285292],95.5783%
6,O=C(O)c1cc(S(=O)(=O)N2CCOCC2)ccc1F [CBK268398],88.5248%
7,CS(=O)(=O)c1ccc(-c2ccc(C(=O)N3CCN(C(=O)OCc4ccccc4)CC3)cn2)cc1 [CBK160189],89.4045%
8,CN1CCC(N2CCN(C(=O)NCCOc3ccccc3)CC2)CC1 [CBK156098],139.733%
9,CCCc1[nH]nc(O)c1CCc1ccccc1 [CBK075083],130.198%
10,Clc1ccc(-c2csc(NCc3ccco3)n2)cc1 [CBK058168],117.668%
11,CC(C)NC(=O)N[C@H]1CCN2C(=O)N(c3ccc(F)c(Cl)c3)C(=O)[C@@H]2C1 [CBK289540],122.037%
12,Cc1c(F)cccc1CN1CCN(S(=O)(=O)c2ccc(C(=O)c3ccccc3)cc2)CC1 [CBK062929],97.1133%
13,Cn1c(=N)n(CC(=O)O)c2ccccc21 [CBK262926B],100%
14,COc1cc(CNn2cnnc2S)ccc1OCC(=O)NC(C)(C)C [CBK266429],81.5121%
15,Cc1noc(CN2CCN(CCc3ccc4c(c3)CCO4)CC2)n1 [CBK305208],97.3158%
16,Cc1nccn1C(=O)NC1CCCCC1 [CBK019187],128.654%
17,COCc1ccc(-c2nccnc2NS(=O)(=O)c2c(C)noc2C)cc1 [CBK049656],84.039%
18,CN(C)CCCNC(=S)NCc1ccc(Cl)cc1 [CBK266910],201.51%
19,O=C(O)COc1ccc(NC(=O)CSCc2ccc(Cl)cc2Cl)cc1 [CBK131700],97.1417%
20,CCNCc1cc2c(C)nn(-c3ccc(F)cc3)c2[nH]c1=O [CBK283118],96.2426%
21,CC(O)CN1CCN(c2nc(-c3ccncc3)nc3c2CCC3)CC1 (stereo not shown) [CBK304971],106.578%
22,COc1ccc2[nH]c3c(c2c1)CCOC31CCN(C(=O)Nc2ccc(C(C)C)cc2)CC1 [CBK047154],94.9006%
23,Cc1cc(C)c2c(c1)-c1c(ssc1=S)C(C)(C)N2C(=O)CSc1nnc[nH]1 [CBK263038],110.929%
24,COc1ccc2c(=O)c3c(oc2c1)C(=O)N(CCN(C)C)C3c1ccccn1 (stereo not shown) [CBK287781],101.113%
25,Cc1[nH]c2ccc(C(=O)N(Cc3ccccc3)C3CC3)cc2c1C [CBK297913],101.738%
